# Results reported in patent publication US20190167675A1, “METHODS AND COMPOSITIONS FOR APPETITE CONTROL AND WEIGHT MANAGEMENT” (SHANGHAI YAO YUAN BIOTECHNOLOGY CO., LTD., priority 2016, published 2019).
# At least one compound was matched to its structure with a doubt left.
# Tests used:
# DEG/ENaC ion channels = experiment: Short-term food intake in normal mice; assay type: in vivo; settings: female C57BL6 mice, 0.01-10 μmole/kg, 15 minutes before feeding, oral gavage or intraperitoneal injection
# Procedure: 13 weeks old C57BL6 Female and male mice were singly housed for 2 weeks before the experiment. Mice were starved Sam-6 μm. […] The administrated volume was 10 ml/kg body weight. 15 minutes later, normal chow solid food was provided to the mice and the food consumption at designated time points were measured. P-values were calculated using t-test (unpaired, 2 tails) for data points. *=p<0.05, **=p<0.01, ***=p<0.001
# 15 weeks old C57BL6 female mice were singly housed for 2 weeks before the experiment. Mice were starved Sam-6 μm. Then Benzamil (Benzamil hydrochloride hydrate) was administrated by intraperitoneal injection, 0.01-10 μmole/kg body weight (3.5621 μg 3.5621 mg/kg b.w.), or saline. The administrated volume was 10 ml/kg body weight. 15 minutes later, normal chow solid food was provided to the mice and the food consumption at designated time points were measured.
# ASICs = settings: in vitro; cited from earlier work
Compound,short-term food intake (DEG/ENaC ion channels),short-term food intake (DEG/ENaC ion channels; listed as benzamilal),ASICs blockage activity (ASICs)
NC(=NCc1ccccc1)NC(=O)c1nc(Cl)c(N)nc1N [Benzamil],induced reduction in short-term food consumption,suppressed short-term food intake,–
"N=C(N)c1ccc(/C=C/c2ccc(C(=N)N)cc2O)cc1 [HSB, hydroxystilbamidine]",–,–,potent ASICs blockage activity
